# Measurements: PubChem BioAssay (NCATS)
# Amino acid sequences for entries named in this document (tags omitted). A change or cut given only in a name is not applied to a line headed by its entry.
# UniProt P50135: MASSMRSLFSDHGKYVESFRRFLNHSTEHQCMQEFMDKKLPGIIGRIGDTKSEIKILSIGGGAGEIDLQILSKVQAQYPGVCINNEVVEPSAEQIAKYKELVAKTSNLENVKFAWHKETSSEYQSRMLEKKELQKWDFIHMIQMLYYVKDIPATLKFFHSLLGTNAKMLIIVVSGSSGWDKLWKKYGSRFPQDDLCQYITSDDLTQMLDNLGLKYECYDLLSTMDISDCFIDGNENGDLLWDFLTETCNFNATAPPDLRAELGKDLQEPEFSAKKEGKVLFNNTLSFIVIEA
# UniProt P40261: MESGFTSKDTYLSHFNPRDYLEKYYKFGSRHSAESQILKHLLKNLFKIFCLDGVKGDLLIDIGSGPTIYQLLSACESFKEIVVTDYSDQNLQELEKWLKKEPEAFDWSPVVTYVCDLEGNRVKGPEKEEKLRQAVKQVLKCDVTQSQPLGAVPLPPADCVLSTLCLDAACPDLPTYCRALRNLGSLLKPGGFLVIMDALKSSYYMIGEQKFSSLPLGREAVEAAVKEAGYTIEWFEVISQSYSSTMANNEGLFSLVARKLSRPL
# UniProt P11086: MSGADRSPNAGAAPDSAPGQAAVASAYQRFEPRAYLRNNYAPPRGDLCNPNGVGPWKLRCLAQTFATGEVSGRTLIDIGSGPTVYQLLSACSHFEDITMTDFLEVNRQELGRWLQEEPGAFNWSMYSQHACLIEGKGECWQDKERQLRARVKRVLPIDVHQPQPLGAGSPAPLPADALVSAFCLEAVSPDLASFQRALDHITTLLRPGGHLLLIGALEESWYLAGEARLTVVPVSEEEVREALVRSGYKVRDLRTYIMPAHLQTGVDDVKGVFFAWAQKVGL
# The other results are listed elsewhere or left out. The main result of the screen is listed elsewhere. These columns were measured beside it and carry no call. Compounds called inactive in the main read-out are mostly missing here. For part of these data: Words in brackets tell the shape of the fitted curve; partial curves, single points and poor fits give uncertain potencies.
# Assays:
# [1] = qHTS assay for small molecule antagonists of peroxisome proliferator-activated receptor gamma signaling (AID 588537); conditions: HEK293 PPARg-UAS-bla, beta-lactamase ratio, antagonist mode; measured here: W460 blue channel
# How it was run: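 Antagonist mode, beta-lactamase reporter in HEK293; charcoal/dextran FBS 1%; 3000 cells/well, 37 C 6-6.5 h; cpd titration + rosiglitazone 50 nM final, 16 h 37 C; CCF4, 2 h RT; 460/530 nm; Hill fit → IC50, efficacy.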
# [2] = S16 Schwann cell PMP22 intronic element beta-lactamase assay (AID 624044); conditions: S16 rat Schwann cells, PMP22 element beta-lactamase FRET, 24 h; measured here: 530 nm viability channel
# How it was run: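 Rat S16 Schwann cells with beta-Lac driven by a PMP22 intronic element, compound-treated 24 h at 37 °C. LiveBLAzer FRET B/G read: 460 nm normalized to potassium clavulanate vs DMSO; 535 nm FRET as viability; concentration-effect curves classified.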
# [3] = A High-Content qHTS Against Drug Library for the Identification of Small Molecules that Inhibit DYT1 Early Onset Primary Dystonia-Associated Cell Pathology (AID 1645839); conditions: HEK293 Flp-In EGFP-delE TorsinA, punctate imaging, 48 h; measured here: cell count cytotoxicity
# How it was run: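 In this high-content image screen, delE TorsinA mislocalization in inducible Flp-In 293 cells is scored as %pathology, with cell count serving as the counterscreen. Compound exposure lasts 48 h under tetracycline induction in reduced-serum medium.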
# [4] = molecular target: Histamine N-methyltransferase (Homo sapiens) (UniProt P50135); experiment: Confirmatory Screen for Target Class Profiling of Small Molecule Inhibitors of Methyltransferases (AID 1745852); conditions: MTase-Glo luminescence, SAH detection, recombinant enzyme; measured here: HNMT inhibition potency
# [5] = molecular target: Nicotinamide N-methyltransferase (Homo sapiens) (UniProt P40261); experiment: as above; conditions: MTase-Glo luminescence, SAH detection, recombinant enzyme; measured here: NNMT inhibition potency
# [6] = molecular target: Phenylethanolamine N-methyltransferase (Homo sapiens) (UniProt P11086); experiment: as above; conditions: MTase-Glo luminescence, SAH detection, recombinant enzyme; measured here: PNMT inhibition potency
# [7] = NCATS anti-infectives library activity on the primary C. elegans qHTS viability assay (AID 1745855); conditions: C. elegans worm area imaging, day 7; measured here: worm number, day 3
# How it was run: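 Viability read-out is GFP fluorescence of PE254-GFP-FLuc C. elegans, measured by laser cytometry (488 nm) at day 0, 3 and 7. Ten L1 worms per well were incubated 7 days at 21 °C with compounds and bacterial capsules in S medium.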
# [8] = qHTS Assay for Inhibitors of PDE-IV (AID 607); conditions: HEK293 ACTOne CNG channel cells, membrane potential fluorescence; measured here: parental cell counter-screen
# How it was run: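 HEK293 ACTOne cells with CNG channel (1000/well), endogenous PDE4; membrane potential dye, compounds up to 22.9 uM final. Fluorescence Ex 535/Em 590; RO 20-1724 (100 uM final) as reference.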
# [9] = qHTS Assay for Lipid Storage Modulators (AID 1519); conditions: Drosophila S3 cells, BODIPY lipid droplet/cell ratio, laser cytometry, cells loaded with oleic acid
# How it was run: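 Cells seeded at 5,000 per well were treated with compounds over a concentration series and loaded with oleic acid (400 uM, as added). Lipid droplet fluorescence (488 nm excitation, 500-530 nm channel) was read by laser-scanning cytometry and normalized to 20 uM Triacsin C.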
compound,measurement,setting,value
NCC(O)c1ccc(O)cc1 (stereo not given),AC50,[1],"50.1 µM [rising, single point]"
C=C1CC2C(CC[C@]3(C)C(=O)CCC23)[C@]2(C)C=CC(=O)C=C12 (stereo not given in full),AC50,[2],"0.251 µM [falling, full curve]"
NP(N)(=O)NC(=O)c1ccc(F)cc1,AC50,[2],"1.58 µM [falling, full curve, poor fit]"
c1ccc2nc(N3CCNCC3)ccc2c1,AC50,[3],"17.8 µM [falling, single point]"
CCCN1CCC[C@@H]2Cc3nc(N)ncc3C[C@H]21,AC50,[3],"35.5 µM [rising, single point]"
Nc1ccncc1,IC50,[4],"24.3 µM [falling, partial curve, poor fit]"
same,IC50,[5],"15.3 µM [falling, partial curve]"
C[C@@H](N)Cc1cnc[nH]1,IC50,[4],"10.9 µM [rising, partial curve]"
CNc1ccc2oc(C[C@H]3O[C@@]4(CC[C@H]3C)O[C@H]([C@H](C)C(=O)c3ccc[nH]3)[C@H](C)C[C@H]4C)nc2c1C(=O)O,IC50,[5],"24.3 µM [falling, partial curve]"
Cc1sc2ccccc2c1CC1=NCCN1,IC50,[6],"19.3 µM [falling, partial curve]"
NCCc1ccc(S(=O)(=O)F)cc1,AC50,[7],"0.648 µM [falling, partial curve, poor fit]"
CC[C@H](O)C(C[C@H](C)N(C)C)(c1ccccc1)c1ccccc1,AC50,[3],"39.8 µM [falling, partial curve, poor fit]"
CC(C)(Cc1c[nH]c2ccc(Cl)cc12)NCCOc1ccccc1OCC1CC1,AC50,[8],"25.1 µM [rising, single point]"
same,max response,[9]; measured here: cell count channel max response,-47.8%
same,max response,[9]; measured here: lipid channel max response,-106%

# Reformatted: entries from further up.
compound | measurement | setting | value
NP(N)(=O)NC(=O)c1ccc(F)cc1 | AC50 | [2] | 1.58 µM [falling, full curve, poor fit]
c1ccc2nc(N3CCNCC3)ccc2c1 | AC50 | [3] | 17.8 µM [falling, single point]
